The chains behind the UniProt entries cited, without tags or fusion partners.
UniProt Q04206, whole entry: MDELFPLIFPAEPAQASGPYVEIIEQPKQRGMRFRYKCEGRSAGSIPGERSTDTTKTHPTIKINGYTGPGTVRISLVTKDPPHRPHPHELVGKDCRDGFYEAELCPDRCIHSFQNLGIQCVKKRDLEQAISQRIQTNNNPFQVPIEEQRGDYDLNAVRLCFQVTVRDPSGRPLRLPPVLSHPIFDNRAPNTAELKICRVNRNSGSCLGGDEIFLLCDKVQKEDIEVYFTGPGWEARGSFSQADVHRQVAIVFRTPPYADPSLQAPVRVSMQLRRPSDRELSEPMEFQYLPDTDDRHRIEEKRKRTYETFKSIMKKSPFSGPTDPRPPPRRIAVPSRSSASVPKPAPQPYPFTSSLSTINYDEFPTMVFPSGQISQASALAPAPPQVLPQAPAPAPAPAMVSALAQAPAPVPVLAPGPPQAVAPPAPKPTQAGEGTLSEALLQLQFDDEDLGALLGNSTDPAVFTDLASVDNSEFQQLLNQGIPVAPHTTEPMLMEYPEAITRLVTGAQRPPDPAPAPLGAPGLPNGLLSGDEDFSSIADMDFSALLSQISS
UniProt Q04207, whole entry: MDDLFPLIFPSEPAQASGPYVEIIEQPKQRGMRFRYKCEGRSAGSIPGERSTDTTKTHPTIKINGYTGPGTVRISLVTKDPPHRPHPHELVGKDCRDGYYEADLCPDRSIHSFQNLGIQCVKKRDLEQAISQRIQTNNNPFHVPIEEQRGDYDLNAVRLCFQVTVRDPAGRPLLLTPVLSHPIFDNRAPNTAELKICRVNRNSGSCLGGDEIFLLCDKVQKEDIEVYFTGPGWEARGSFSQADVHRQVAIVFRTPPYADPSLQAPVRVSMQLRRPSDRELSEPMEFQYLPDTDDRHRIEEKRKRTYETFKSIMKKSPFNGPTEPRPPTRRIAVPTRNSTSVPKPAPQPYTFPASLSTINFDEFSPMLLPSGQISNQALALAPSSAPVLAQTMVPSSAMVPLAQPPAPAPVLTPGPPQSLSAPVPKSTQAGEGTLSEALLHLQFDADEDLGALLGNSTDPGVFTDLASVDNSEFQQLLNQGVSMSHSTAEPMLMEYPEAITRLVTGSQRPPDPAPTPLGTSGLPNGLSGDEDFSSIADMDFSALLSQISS

In publication PMC8164026:

How the values were obtained:
[1] = target: His-RelA (p65) (UniProt Q04206); assay: EMSA; details: EMSA: 10 mM Tris-HCl pH 7.9, 50 mM NaCl, 1 mM MgCl2, 1 mM EDTA, 5 mM DTT, 5% glycerol, 0.5 µg poly dI.dC, 2-10 µg acetylated BSA, 10 min, room temperature; recombinant protein; protein details: His; label: 32P 5' end
[2] = target: NF-kB/RelA in mouse lung nuclear extract (mouse (TNFα-treated lung)) (UniProt Q04207); assay: competition with a labelled probe; details: EMSA: 10 mM Tris-HCl pH 7.9, 50 mM NaCl, 1 mM MgCl2, 1 mM EDTA, 5 mM DTT, 5% glycerol, 0.5 µg poly dI.dC, 2-10 µg acetylated BSA, 10 min, room temperature, protein in an extract
[3] = target: NF-kB/RelA in mouse lung nuclear extract (mouse (TNFα-treated lung)) (UniProt Q04207); assay: EMSA supershift; details: anti-RelA; EMSA: 10 mM Tris-HCl pH 7.9, 50 mM NaCl, 1 mM MgCl2, 1 mM EDTA, 5 mM DTT, 5% glycerol, 0.5 µg poly dI.dC, 2-10 µg acetylated BSA, 10 min, room temperature; protein in an extract; label: 32P 5' end
[4] = target: NF-kB/RelA in mouse lung nuclear extract (mouse (TNFα-treated lung)) (UniProt Q04207); assay: EMSA; details: plus purified NEIL2-FLAG 5-20 nM, dose dependent inhibition; EMSA: 10 mM Tris-HCl pH 7.9, 50 mM NaCl, 1 mM MgCl2, 1 mM EDTA, 5 mM DTT, 5% glycerol, 0.5 µg poly dI.dC, 2-10 µg acetylated BSA, 10 min, room temperature; protein in an extract; label: 32P 5' end

TTTTTATCAAATGTGGGATTTTCCCATGAGTCTCAAAA (double strand) [IL6-WT (mIl6-WT)]
binding result [1]: binds | binding result ([2]; 100-fold unlabeled IL6-WT, label: 32P 5' end): binds

GGACCCTGAGCTCAGAAAAGGTCCCTGGTCCACGGGCT (double strand) [C2-M]
binding result ([2]; 100-fold unlabeled C2-M vs C2-WT probe, label: 32P 5' end (probe) or unlabeled (competitor)): no binding

GGACCCTGAGCTCAGGGAATTTCCCTGGTCCCCGGGCT (double strand) [C2-WT (mCxcl2-WT)]
binding result [1]: binds | binding result ([2]; 100-fold unlabeled C2-WT, label: 32P 5' end): binds | binding result [3]: binds

TTGCTATTAAATGTGTTCGTTTGTACAGAGTCTCAAAA (double strand) [IL6-M]
binding result ([2]; 100-fold unlabeled IL6-M vs IL6-WT probe, label: 32P 5' end (probe) or unlabeled (competitor)): no binding

GAAACACCCTGTACTCCGAAAAGGTCCCTGGCCCGGAGCTCTG / CAGAGCTCGGGGCCAGGGACCTTTTCGGAGTACAGGGTGTTTC [C1-M]
binding result ([2]; 100-fold unlabeled C1-M vs C1-WT probe, label: 32P 5' end (probe) or unlabeled (competitor)): no binding

GAAACACCCTGTACTCCGGGAATTTCCCTGGCCCGGAGCTCTG / CAGAGCTCCGGGCCAGGGAAATTCCCGGAGTACAGGGTGTTTA [C1-WT (mCxcl1-WT)]
binding result [4]: binds more weakly | binding result [1]: binds | binding result ([2]; 100-fold unlabeled C1-WT, label: 32P 5' end): binds | binding result [3]: binds

The exact form of at least one protein or probe is not confirmed. For part of these data: Where cells or extracts were used, other partners may take part. For part of these data: Negatives hold for the conditions tested. For part of these data: The comparison behind a weaker result is the experiment's own reference, which may not be listed here. For part of these data: At least one verdict rests on a figure or table, not on a statement of the authors.
